Measured values as given in PMC10542385.
These are yes or no findings as the source states them, for the method shown. For some of these results: In cells and extracts the contact can be indirect. Some binding calls cover weakened binding; strength is not graded here. Each block holds one substance with its values, some of them ahead of it.

Amino acid sequences for entries named in this document (tags omitted).
UniProt Q14145: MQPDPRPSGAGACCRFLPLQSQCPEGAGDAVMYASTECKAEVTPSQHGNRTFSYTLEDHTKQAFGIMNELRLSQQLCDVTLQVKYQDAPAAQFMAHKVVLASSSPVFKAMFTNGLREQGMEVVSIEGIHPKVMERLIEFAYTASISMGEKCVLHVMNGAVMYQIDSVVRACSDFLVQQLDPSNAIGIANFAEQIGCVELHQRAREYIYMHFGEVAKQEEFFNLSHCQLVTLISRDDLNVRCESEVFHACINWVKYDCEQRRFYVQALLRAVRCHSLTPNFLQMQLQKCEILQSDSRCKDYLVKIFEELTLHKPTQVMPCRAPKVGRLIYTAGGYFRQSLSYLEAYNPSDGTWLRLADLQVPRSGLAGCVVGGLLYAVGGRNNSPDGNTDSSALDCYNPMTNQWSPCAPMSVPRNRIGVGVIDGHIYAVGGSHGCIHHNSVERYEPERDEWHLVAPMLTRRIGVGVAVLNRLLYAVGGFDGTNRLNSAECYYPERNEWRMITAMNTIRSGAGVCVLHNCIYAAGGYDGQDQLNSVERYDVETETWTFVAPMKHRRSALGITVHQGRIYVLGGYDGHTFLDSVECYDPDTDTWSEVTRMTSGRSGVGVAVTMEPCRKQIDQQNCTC
UniProt Q9Y5T5: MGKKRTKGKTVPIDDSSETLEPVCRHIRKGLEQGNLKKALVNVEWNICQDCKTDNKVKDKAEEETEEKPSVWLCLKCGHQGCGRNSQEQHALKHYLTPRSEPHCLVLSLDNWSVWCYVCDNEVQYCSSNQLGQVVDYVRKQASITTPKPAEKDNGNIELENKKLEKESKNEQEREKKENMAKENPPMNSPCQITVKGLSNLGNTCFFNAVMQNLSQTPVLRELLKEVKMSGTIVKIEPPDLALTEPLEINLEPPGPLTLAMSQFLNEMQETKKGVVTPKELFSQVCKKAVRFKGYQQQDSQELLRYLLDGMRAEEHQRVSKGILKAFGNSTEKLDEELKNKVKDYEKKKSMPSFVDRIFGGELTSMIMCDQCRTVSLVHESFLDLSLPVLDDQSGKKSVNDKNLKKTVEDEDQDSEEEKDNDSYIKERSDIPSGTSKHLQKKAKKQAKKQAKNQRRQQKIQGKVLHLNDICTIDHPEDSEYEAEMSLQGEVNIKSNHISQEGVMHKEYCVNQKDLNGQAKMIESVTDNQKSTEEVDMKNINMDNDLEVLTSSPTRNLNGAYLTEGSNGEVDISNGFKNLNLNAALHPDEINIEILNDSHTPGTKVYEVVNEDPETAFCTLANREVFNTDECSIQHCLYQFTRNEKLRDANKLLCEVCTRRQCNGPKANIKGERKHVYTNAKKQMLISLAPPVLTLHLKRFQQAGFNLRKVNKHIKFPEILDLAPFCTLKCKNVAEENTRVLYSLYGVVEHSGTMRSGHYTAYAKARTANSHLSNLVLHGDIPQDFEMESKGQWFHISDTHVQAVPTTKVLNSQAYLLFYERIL

Tests used:
GST-KEAP1 (human) = GST-KEAP1 (human) (UniProt Q14145); assay: pull-down; purified GST or GST-KEAP1 on GST beads incubated with purified Flag-USP16 overnight at 4 °C; washed 3 times with IP lysis buffer; western blot; both purified
[1] = target: Flag-tagged USP16 (ubiquitin carboxyl-terminal hydrolase 16) (human) (UniProt Q9Y5T5); assay: co-IP; HEK293T cells transfected with Flag-USP16 and HA-KEAP1, MG132 for 6 h before collection, harvested after 48 h; IP buffer, protein A/G magnetic beads
[2] = target: USP16 (ubiquitin carboxyl-terminal hydrolase 16), endogenous in HepG2 cells (human (endogenous in HepG2)) (UniProt Q9Y5T5); assay: co-IP; endogenous proteins in HepG2 lysate (200 µg), primary antibody (1 µg) or IgG overnight at 4 °C, protein A/G magnetic beads; normal conditions, and with or without H/R challenge (interaction elevated after H/R)
[3] = target: USP16 (ubiquitin carboxyl-terminal hydrolase 16), endogenous in HepG2 cells (human (endogenous in HepG2)) (UniProt Q9Y5T5); assay: proximity ligation; PLA kit (Merck DUO92102-1KT) on cells; cells not named

- binding (GST-KEAP1 (human)): binds
Substance: Flag-tagged USP16 (ubiquitin carboxyl-terminal hydrolase 16) (from UniProt Q9Y5T5 1-823) (enzyme)

- binding [1]: binds
Substance: HA-tagged KEAP1 (Kelch Like ECH Associated Protein 1) (from UniProt Q14145 1-624)

- binding [2]: binds
- binding [3]: binds
Substance: KEAP1 (Kelch Like ECH Associated Protein 1), endogenous in HepG2 cells (from UniProt Q14145 1-624)
